The results in this text go back to publication PMC5432348.

The chains behind the UniProt entries cited, without tags or fusion partners.
UniProt P21926: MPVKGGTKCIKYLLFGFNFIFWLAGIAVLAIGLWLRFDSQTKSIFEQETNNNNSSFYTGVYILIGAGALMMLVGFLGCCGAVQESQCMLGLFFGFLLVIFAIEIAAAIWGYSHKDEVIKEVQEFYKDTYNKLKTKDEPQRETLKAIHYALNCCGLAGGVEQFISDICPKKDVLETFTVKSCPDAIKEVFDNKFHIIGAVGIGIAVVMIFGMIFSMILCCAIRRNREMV

The target in assay [1] is T1, tetraspanin Co-029/tspan8 (UniProt P19075).
T1 sequence: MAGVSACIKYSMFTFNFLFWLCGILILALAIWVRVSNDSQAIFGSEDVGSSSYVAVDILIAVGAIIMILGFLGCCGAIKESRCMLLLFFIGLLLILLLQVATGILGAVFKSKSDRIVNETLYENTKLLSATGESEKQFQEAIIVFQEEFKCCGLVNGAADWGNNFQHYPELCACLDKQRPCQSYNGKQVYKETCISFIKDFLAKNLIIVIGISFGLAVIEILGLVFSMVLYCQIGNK
Kind of assay: affinity purification with mass spectrometry; 1% Brij97 lysates of Isreco1 and Is1-Co029 cells cultured on collagen I (also on tissue culture plastic); beads coupled to mAb Ts9 (CD9) or TS29.2 (Co-029); SDS-PAGE, in-gel trypsin digestion, LC-MS/MS.

For assay [2], the target named is CD9 (human (endogenous in Isreco1)) (UniProt P21926). The assay is described as above.

No constants are given. Whether binding was seen depends on the method and setting. Binding seen in cells or lysates may run through a third protein. These calls come from enrichment with a bait or labelling near it, and not all partners need be listed.

B1: PLP2 (protein, UniProt Q04941 1-152)
chain: MADSERLSAPGCWAACTNFSRTRKGILLFAEIILCLVILICFSASTPGYSSLSVIEMILAAIFFVVYMCDLHTKIPFINWPWSDFFRTLIAAILYLITSIVVLVERGNHSKIVAGVLGLIATCLFGYDAYVTFPVRQPRHTAAPTDPADGPV
On to B1, for which the binding result in assay [1] and in assay [2] was “binds” throughout.

B2: CYSTM1 (protein, UniProt Q9H1C7 1-97)
chain: MNQENPPPYPGPGPTAPYPPYPPQPMGPGPMGGPYPPPQGYPYQGYPQYGWQGGPQEPPKTTVYVVEDQRRDELGPSTCLTACWTALCCCCLWDMLT
As to B2, the binding result in assay [1] and in assay [2] was “binds” throughout.

B3: CD82 (protein, UniProt P27701 1-267)
chain: MGSACIKVTKYFLFLFNLIFFILGAVILGFGVWILADKSSFISVLQTSSSSLRMGAYVFIGVGAVTMLMGFLGCIGAVNEVRCLLGLYFAFLLLILIAQVTAGALFYFNMGKLKQEMGGIVTELIRDYNSSREDSLQDAWDYVQAQVKCCGWVSFYNWTDNAELMNRPEVTYPCSCEVKGEEDNSLSVRKGFCEAPGNRTQSGNHPEDWPVYQEGCMEKVQAWLQENLGIILGVGVGVAIIELLGMVLSICLCRHVHSEDYSKVPKY
B3: the binding entry in assay [1] and in assay [2] was “binds” throughout.

B4: SLC44A2 (protein, UniProt Q8IWA5 1-706)
chain: MGDERPHYYGKHGTPQKYDPTFKGPIYNRGCTDIICCVFLLLAIVGYVAVGIIAWTHGDPRKVIYPTDSRGEFCGQKGTKNENKPYLFYFNIVKCASPLVLLEFQCPTPQICVEKCPDRYLTYLNARSSRDFEYYKQFCVPGFKNNKGVAEVLQDGDCPAVLIPSKPLARRCFPAIHAYKGVLMVGNETTYEDGHGSRKNITDLVEGAKKANGVLEARQLAMRIFEDYTVSWYWIIIGLVIAMAMSLLFIILLRFLAGIMVWVMIIMVILVLGYGIFHCYMEYSRLRGEAGSDVSLVDLGFQTDFRVYLHLRQTWLAFMIILSILEVIIILLLIFLRKRILIAIALIKEASRAVGYVMCSLLYPLVTFFLLCLCIAYWASTAVFLSTSNEAVYKIFDDSPCPFTAKTCNPETFPSSNESRQCPNARCQFAFYGGESGYHRALLGLQIFNAFMFFWLANFVLALGQVTLAGAFASYYWALRKPDDLPAFPLFSAFGRALRYHTGSLAFGALILAIVQIIRVILEYLDQRLKAAENKFAKCLMTCLKCCFWCLEKFIKFLNRNAYIMIAIYGTNFCTSARNAFFLLMRNIIRVAVLDKVTDFLFLLGKLLIVGSVGILAFFFFTHRIRIVQDTAPPLNYYWVPILTVIVGSYLIAHGFFSVYGMCVDTLFLCFLEDLERNDGSAERPYFMSSTLKKLLNKTNKKAAES
Take B4: the binding entry in assay [1] and in assay [2] was “binds” in each case.

B5: BCAM (protein, UniProt P50895 32-628)
chain: EVRLSVPPLVEVMRGKSVILDCTPTGTHDHYMLEWFLTDRSGARPRLASAEMQGSELQVTMHDTRGRSPPYQLDSQGRLVLAEAQVGDERDYVCVVRAGAAGTAEATARLNVFAKPEATEVSPNKGTLSVMEDSAQEIATCNSRNGNPAPKITWYRNGQRLEVPVEMNPEGYMTSRTVREASGLLSLTSTLYLRLRKDDRDASFHCAAHYSLPEGRHGRLDSPTFHLTLHYPTEHVQFWVGSPSTPAGWVREGDTVQLLCRGDGSPSPEYTLFRLQDEQEEVLNVNLEGNLTLEGVTRGQSGTYGCRVEDYDAADDVQLSKTLELRVAYLDPLELSEGKVLSLPLNSSAVVNCSVHGLPTPALRWTKDSTPLGDGPMLSLSSITFDSNGTYVCEASLPTVPVLSRTQNFTLLVQGSPELKTAEIEPKADGSWREGDEVTLICSARGHPDPKLSWSQLGGSPAEPIPGRQGWVSSSLTLKVTSALSRDGISCEASNPHGNKRHVFHFGTVSPQTSQAGVAVMAVAVSVGLLLLVVAVFYCVRRKGGPCCRQRREKGAPPPGEPGLSHSGSEQPEQTGLLMGGASGGARGGSGGFGDEC
As for B5, the binding result in assay [1] and in assay [2] was “binds” throughout.
